Source: US20020177177A1 (PROLIFIX, published 2002)
No constants are given. Whether binding was seen depends on the method and setting. For some of these results: Binding seen in cells or lysates may run through a third protein. Some results given as binding are weak or reduced against the parent protein; the word gives no strength.

Sequences of proteins named here, by UniProt entry; tags and fusion partners are left off. A change or cut given only in a name is not applied to a line headed by its entry. A line that says so, or that is headed by a name, gives the form on record, which may keep a tag or linker. Residues count along the entry.
UniProt Q15788: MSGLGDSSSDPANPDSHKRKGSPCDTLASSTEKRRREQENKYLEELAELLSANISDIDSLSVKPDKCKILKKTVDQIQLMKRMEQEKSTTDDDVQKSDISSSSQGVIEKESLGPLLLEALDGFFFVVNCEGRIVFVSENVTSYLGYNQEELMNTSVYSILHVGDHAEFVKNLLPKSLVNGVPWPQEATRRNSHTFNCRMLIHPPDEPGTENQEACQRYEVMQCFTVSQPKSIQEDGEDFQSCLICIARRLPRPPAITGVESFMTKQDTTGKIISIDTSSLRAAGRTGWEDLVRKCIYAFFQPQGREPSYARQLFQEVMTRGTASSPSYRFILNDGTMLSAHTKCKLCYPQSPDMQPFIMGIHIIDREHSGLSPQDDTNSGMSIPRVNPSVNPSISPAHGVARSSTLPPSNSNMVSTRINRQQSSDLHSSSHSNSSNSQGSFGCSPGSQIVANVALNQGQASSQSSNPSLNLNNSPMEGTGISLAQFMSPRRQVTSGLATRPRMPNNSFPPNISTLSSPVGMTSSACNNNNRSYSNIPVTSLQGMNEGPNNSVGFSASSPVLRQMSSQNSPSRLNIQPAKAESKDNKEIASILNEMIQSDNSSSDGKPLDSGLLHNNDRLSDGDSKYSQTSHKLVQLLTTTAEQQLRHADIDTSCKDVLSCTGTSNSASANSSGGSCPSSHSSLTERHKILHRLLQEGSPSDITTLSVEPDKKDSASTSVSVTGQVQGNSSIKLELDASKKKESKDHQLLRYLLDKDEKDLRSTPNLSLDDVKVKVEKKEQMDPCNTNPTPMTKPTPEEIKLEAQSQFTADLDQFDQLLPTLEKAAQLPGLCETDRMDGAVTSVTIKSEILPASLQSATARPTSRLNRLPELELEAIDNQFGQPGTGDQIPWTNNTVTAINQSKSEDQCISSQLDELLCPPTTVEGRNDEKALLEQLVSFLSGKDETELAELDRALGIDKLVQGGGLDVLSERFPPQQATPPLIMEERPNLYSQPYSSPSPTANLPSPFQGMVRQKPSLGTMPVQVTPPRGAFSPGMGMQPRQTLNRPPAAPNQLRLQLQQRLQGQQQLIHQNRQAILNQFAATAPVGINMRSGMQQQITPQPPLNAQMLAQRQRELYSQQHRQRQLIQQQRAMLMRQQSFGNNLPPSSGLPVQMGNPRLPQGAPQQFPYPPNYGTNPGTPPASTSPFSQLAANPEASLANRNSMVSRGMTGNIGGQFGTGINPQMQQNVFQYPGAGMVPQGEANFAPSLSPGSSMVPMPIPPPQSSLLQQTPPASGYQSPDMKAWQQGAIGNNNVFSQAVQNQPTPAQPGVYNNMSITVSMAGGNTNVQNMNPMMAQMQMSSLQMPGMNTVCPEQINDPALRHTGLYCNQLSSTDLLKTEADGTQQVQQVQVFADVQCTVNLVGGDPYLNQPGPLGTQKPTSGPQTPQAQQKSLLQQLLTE
HA-tagged SRC-1: residues 361-1441 of Q15788
GST-SRC1 361-782: residues 361-782 of Q15788
UniProt P03372: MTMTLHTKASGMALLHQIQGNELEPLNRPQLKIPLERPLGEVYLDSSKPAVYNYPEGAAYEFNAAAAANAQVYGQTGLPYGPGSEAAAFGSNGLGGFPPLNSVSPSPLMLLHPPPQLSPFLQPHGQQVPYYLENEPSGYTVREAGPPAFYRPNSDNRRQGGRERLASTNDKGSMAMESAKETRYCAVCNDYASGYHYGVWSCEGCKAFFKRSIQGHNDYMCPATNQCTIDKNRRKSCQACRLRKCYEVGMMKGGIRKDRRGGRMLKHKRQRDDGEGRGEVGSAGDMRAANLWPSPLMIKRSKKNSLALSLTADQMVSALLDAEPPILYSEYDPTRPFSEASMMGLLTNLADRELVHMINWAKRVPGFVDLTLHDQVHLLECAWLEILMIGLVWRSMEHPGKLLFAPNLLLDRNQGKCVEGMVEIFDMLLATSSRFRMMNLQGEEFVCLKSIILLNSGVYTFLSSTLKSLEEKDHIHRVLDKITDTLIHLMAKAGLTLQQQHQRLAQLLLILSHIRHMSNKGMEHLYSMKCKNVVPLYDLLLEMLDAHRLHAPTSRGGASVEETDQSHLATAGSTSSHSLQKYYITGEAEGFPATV
UniProt P24385: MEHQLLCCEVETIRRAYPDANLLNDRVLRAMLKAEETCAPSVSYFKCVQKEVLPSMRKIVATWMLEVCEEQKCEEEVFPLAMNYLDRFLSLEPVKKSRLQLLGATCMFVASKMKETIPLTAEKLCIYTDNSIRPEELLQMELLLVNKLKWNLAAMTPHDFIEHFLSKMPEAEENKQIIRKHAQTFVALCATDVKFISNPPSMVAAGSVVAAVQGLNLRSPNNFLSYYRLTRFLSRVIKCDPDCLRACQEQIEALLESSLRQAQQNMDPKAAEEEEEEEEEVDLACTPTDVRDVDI
cyclin D1 L254/255A mutant (P24385, form named): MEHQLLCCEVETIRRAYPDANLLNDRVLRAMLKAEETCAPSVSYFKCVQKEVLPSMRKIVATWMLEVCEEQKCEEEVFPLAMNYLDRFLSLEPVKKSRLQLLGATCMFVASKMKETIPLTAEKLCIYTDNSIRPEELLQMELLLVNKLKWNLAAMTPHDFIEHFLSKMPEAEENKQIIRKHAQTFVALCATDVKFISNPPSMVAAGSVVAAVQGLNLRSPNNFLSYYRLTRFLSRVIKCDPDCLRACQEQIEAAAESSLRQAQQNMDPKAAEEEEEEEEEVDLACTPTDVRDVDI

How the values were obtained:
[1] = target: GST-SRC1 361-1441 (human) (UniProt Q15788); assay: GST pull-down on glutathione-agarose, anti-cyclin D1 Western blot
GST-SRC1 361-782 (human) = GST-SRC1 361-782 (human) (UniProt Q15788); assay: as above
[2] = target: GST-SRC1 361-1441 (human) (UniProt Q15788); assay: in vitro protein binding assay (GST pull-down) with purified bacterially expressed proteins
baculovirus-produced ER = baculovirus-produced ER (UniProt P03372); assay: pull-down with ERE oligonucleotide on streptavidin paramagnetic beads, purified proteins, Western blot
[3] = target: wild type estrogen receptor (ER) expressed in cells (UniProt P03372); assay: restates the co-immunoprecipitation result
[4] = target: wild type estrogen receptor (ER) expressed in cells (UniProt P03372); assay: summary of the co-immunoprecipitation experiments
[5] = target: wild type estrogen receptor (ER) expressed in cells (UniProt P03372); assay: co-immunoprecipitation (monoclonal ER antibody) from transfected COS-7 cells, anti-cyclin D1 Western blot
HA-tagged SRC-1 (human) [6] = target: HA-tagged SRC-1 (human) (UniProt Q15788); assay: summary of the binding experiments of this study
HA-tagged SRC-1 (human) [7] = target: HA-tagged SRC-1 (human) (UniProt Q15788); assay: co-immunoprecipitation (12CA5 HA antibody) from transfected COS-7 cells, anti-cyclin D1 Western blot

Measured: binding

E. coli-produced 6X histidine-tagged cyclin D1 (from UniProt P24385 1-295)
binds: [1] | GST-SRC1 361-782 (human) | [2] | baculovirus-produced ER

cyclin D1 L254/255A mutant (from UniProt P24385 1-295)
binds: [3] | [4] | [5]

wild type cyclin D1 (from UniProt P24385 1-295)
binds: HA-tagged SRC-1 (human) [6] | HA-tagged SRC-1 (human) [7] | [5]
